A short description of this data set: T1-weighted 19F-MRI phantom images in deuterated chloroform solution. Particulars: 5 mM and 10 mM deuterated chloroform solutions; TR=1500 ms, TE=12 ms.

For `CC1(C)CC(OCCCCOC(C(F)(F)F)(C(F)(F)F)C(F)(F)F)CC(C)(C)N1[O]` [Compound 11, 4-(4-((1,1,1,3,3,3-hexafluoro-2-(trifluoromethyl)propane-2-yl)oxy)butoxy)-2,2,6,6-tetra methylpiperidine-1-oxyl], the “Brightness of T1-weighted 19F-MRI image versus Comparative Example 1 (compound A1)” value is “brighter”.

Values taken from patent publication US20240173439A1, “FLUORINE-CONTAINING COMPOUND AND CONTRAST MEDIUM” (TDK CORPORATION, priority 2021, published 2024).
